The results in this text go back to paper PMC11967755.

By UniProt entry, the sequences of proteins in these tests, tags left out.
UniProt Q14318: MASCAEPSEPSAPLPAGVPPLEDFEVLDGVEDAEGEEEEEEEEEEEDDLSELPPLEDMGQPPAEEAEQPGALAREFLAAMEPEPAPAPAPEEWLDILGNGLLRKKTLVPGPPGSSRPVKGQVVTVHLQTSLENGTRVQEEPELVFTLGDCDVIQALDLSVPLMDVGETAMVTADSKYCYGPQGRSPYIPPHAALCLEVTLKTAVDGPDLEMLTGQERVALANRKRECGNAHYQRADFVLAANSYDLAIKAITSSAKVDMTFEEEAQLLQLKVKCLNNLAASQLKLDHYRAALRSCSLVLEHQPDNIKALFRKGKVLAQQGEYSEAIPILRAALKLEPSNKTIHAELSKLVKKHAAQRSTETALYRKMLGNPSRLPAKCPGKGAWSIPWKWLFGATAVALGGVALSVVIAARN

Assay [1] deals with T1, RNF25 (human (endogenous in DLD-1)) (UniProt Q96BH1).
T1 sequence: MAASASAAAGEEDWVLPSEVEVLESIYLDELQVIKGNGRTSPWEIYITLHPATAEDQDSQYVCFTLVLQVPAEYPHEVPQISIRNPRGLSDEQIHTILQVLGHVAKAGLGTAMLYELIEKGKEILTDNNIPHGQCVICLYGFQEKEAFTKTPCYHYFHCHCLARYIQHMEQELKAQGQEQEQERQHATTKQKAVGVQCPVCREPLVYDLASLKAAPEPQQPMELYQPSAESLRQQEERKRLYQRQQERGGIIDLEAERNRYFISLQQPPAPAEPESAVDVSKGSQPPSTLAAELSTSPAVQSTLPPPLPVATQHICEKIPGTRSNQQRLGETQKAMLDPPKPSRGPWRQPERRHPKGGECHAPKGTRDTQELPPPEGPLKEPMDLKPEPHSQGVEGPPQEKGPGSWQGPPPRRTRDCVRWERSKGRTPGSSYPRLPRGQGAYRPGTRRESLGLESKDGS
Description: co-IP; endogenous proteins in DLD-1 cells, IP-RNF25 and IP-FKBP8 with immunoblot (Pierce Co-Immunoprecipitation Kit); cells treated with 20 µM MG-132 for 8 h before harvesting; also in cells with NC or sh1-Circ (circSATB1 knock-down, less of the complex).

A further assay addresses T2, His-RNF25 (UniProt Q96BH1).
T2 sequence: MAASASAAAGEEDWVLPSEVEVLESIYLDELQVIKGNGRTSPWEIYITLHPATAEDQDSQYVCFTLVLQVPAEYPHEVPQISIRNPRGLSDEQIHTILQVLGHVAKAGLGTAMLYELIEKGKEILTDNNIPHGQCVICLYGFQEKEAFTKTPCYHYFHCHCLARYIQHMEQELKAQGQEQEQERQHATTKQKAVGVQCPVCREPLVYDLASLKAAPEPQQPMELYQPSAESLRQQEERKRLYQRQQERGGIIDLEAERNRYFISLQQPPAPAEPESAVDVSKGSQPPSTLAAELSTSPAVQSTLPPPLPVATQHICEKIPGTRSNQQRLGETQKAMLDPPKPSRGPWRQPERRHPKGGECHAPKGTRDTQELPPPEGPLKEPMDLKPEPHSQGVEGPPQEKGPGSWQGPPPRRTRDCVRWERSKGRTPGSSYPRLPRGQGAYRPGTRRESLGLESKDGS
Kind of assay: co-IP; HEK-293T cells transfected with His-RNF25 and Flag-FKBP8, with circSATB1 or not (more of the complex with circSATB1); IP-His and IP-Flag with immunoblot; cells treated with 20 µM MG-132 for 8 h before harvesting. Background: A western blot detects proteins with antibodies after separation by electrophoresis.

Assay [2] addresses FKBP8 protein (human (endogenous in DLD-1)) (UniProt Q14318). Kind of assay: co-IP; endogenous proteins in DLD-1 cells, IP-RNF25 and IP-FKBP8 with immunoblot (Pierce Co-Immunoprecipitation Kit); cells treated with 20 µM MG-132 for 8 h before harvesting; also in cells with NC or sh1-Circ (circSATB1 knock-down, less of the complex).
Another assay addresses Flag-FKBP8 (UniProt Q14318). Description: co-IP; HEK-293T cells transfected with His-RNF25 and Flag-FKBP8, with circSATB1 or not (more of the complex with circSATB1); IP-His and IP-Flag with immunoblot; cells treated with 20 µM MG-132 for 8 h before harvesting.

No constants are given. Whether binding was seen depends on the method and setting. Binding seen in cells or lysates may run through a third protein. Some binding calls cover weakened binding; strength is not graded here. For some of these results: Where a sequence is shown, tags or fusion partners need not be part of it.

For “FKBP8 protein (from UniProt Q14318 1-412)”, in assay [1], the binding result is “binds”.
Take Flag-FKBP8 (from UniProt Q14318 1-412): the binding entry with His-RNF25 was “binds”.

B1: RNF25 (enzyme, UniProt Q96BH1 1-459)
chain: MAASASAAAGEEDWVLPSEVEVLESIYLDELQVIKGNGRTSPWEIYITLHPATAEDQDSQYVCFTLVLQVPAEYPHEVPQISIRNPRGLSDEQIHTILQVLGHVAKAGLGTAMLYELIEKGKEILTDNNIPHGQCVICLYGFQEKEAFTKTPCYHYFHCHCLARYIQHMEQELKAQGQEQEQERQHATTKQKAVGVQCPVCREPLVYDLASLKAAPEPQQPMELYQPSAESLRQQEERKRLYQRQQERGGIIDLEAERNRYFISLQQPPAPAEPESAVDVSKGSQPPSTLAAELSTSPAVQSTLPPPLPVATQHICEKIPGTRSNQQRLGETQKAMLDPPKPSRGPWRQPERRHPKGGECHAPKGTRDTQELPPPEGPLKEPMDLKPEPHSQGVEGPPQEKGPGSWQGPPPRRTRDCVRWERSKGRTPGSSYPRLPRGQGAYRPGTRRESLGLESKDGS
As for B1, in assay [2], the binding result was “binds”.

B2: His-RNF25 (enzyme, UniProt Q96BH1 1-459)
chain: MAASASAAAGEEDWVLPSEVEVLESIYLDELQVIKGNGRTSPWEIYITLHPATAEDQDSQYVCFTLVLQVPAEYPHEVPQISIRNPRGLSDEQIHTILQVLGHVAKAGLGTAMLYELIEKGKEILTDNNIPHGQCVICLYGFQEKEAFTKTPCYHYFHCHCLARYIQHMEQELKAQGQEQEQERQHATTKQKAVGVQCPVCREPLVYDLASLKAAPEPQQPMELYQPSAESLRQQEERKRLYQRQQERGGIIDLEAERNRYFISLQQPPAPAEPESAVDVSKGSQPPSTLAAELSTSPAVQSTLPPPLPVATQHICEKIPGTRSNQQRLGETQKAMLDPPKPSRGPWRQPERRHPKGGECHAPKGTRDTQELPPPEGPLKEPMDLKPEPHSQGVEGPPQEKGPGSWQGPPPRRTRDCVRWERSKGRTPGSSYPRLPRGQGAYRPGTRRESLGLESKDGS
Consider B2, for which the binding entry with Flag-FKBP8 is “binds”.
